Taken from: PubChem BioAssay AID652243 (Drosophila RNAi Screening Center, 2013)
The deposit covers about 24,000 reagents; below is an unselected part of those that have a named target and a result. Over the whole deposit, 246 (1%) were called active. 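Plates not normalised; calls are printed but the firefly/Renilla ratio behind them is not deposited; fold cut for lowering reported inconsistently.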 The raw values are shown without normalisation. The numbers tell different reagents against one gene apart. Names joined by + are all predicted targets of the reagent. Not stated in the record: the amount of reagent.

Purpose: 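Knock-downs that decrease or increase androgen receptor reporter signal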 (primary screen)
Cell system: Drosophila S2R+ cells
Reagent: long dsRNA against Drosophila genes
Timing: 72 h (48 h, then 24 h hormone)
Challenge: synthetic androgen R1881 at 10 nM for 24 h
Detection: 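Per-well raw luminescence of the androgen-driven firefly reporter and of the Renilla control, two replicates each, without normalisation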
Direction: firefly reporter light: higher = more light from androgen-responsive reporter; Renilla control light: higher = more constitutive control signal (cell number, transfection)
Active means: 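Across duplicate plates, a knock-down whose log firefly/Renilla ratio shifted a set fold down or up from the GFP/LacZ control mean was a hit; the downward cut appears as both 1.5 and 3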
Meaning of the calls: active = hit: reporter lowered or raised; inactive = no hit

{"gene": "Acsx1R (GeneID 42352)", "reagent": 1, "firefly reporter light, replicate 1": 2.71e5, "firefly reporter light, replicate 2": 2.90e5, "Renilla control light, replicate 1": 2.94e6, "Renilla control light, replicate 2": 2.97e6, "Outcome": "inactive"}
{"gene": "CG33269 (GeneID 2768983)", "reagent": 1, "firefly reporter light, replicate 1": 6.94e5, "firefly reporter light, replicate 2": 6.33e5, "Renilla control light, replicate 1": 2.51e6, "Renilla control light, replicate 2": 1.42e6, "Outcome": "inactive"}
{"gene": "Crtp (GeneID 44276)", "reagent": 1, "firefly reporter light, replicate 1": 3.48e5, "firefly reporter light, replicate 2": 4.09e5, "Renilla control light, replicate 1": 2.41e6, "Renilla control light, replicate 2": 2.22e6, "Outcome": "inactive"}
{"gene": "Crtp (GeneID 44276)", "reagent": 2, "firefly reporter light, replicate 1": 3.59e5, "firefly reporter light, replicate 2": 3.00e5, "Renilla control light, replicate 1": 6.68e5, "Renilla control light, replicate 2": 3.74e5, "Outcome": "inactive"}
{"gene": "Ugt302K1 (GeneID 53502)", "reagent": 1, "firefly reporter light, replicate 1": 776, "firefly reporter light, replicate 2": 794, "Outcome": "inactive"}
{"gene": "PGRP-SC1b (GeneID 35861)", "reagent": 1, "firefly reporter light, replicate 1": 8.28e5, "firefly reporter light, replicate 2": 1.14e6, "Renilla control light, replicate 1": 1.59e6, "Renilla control light, replicate 2": 1.54e6, "Outcome": "inactive"}
{"gene": "Cad74A (GeneID 39936)", "reagent": 1, "firefly reporter light, replicate 1": 1.79e5, "firefly reporter light, replicate 2": 2.50e5, "Renilla control light, replicate 1": 2.23e6, "Renilla control light, replicate 2": 2.55e6, "Outcome": "inactive"}
{"gene": "ImpL1 (GeneID 39499)", "reagent": 1, "firefly reporter light, replicate 1": 7.28e5, "firefly reporter light, replicate 2": 7.42e5, "Renilla control light, replicate 1": 2.03e6, "Renilla control light, replicate 2": 2.58e6, "Outcome": "inactive"}
{"gene": "ImpL1 (GeneID 39499)", "reagent": 2, "firefly reporter light, replicate 1": 7.16e5, "firefly reporter light, replicate 2": 1.06e6, "Renilla control light, replicate 1": 9.07e5, "Renilla control light, replicate 2": 1.34e6, "Outcome": "inactive"}
{"gene": "Ns2 (GeneID 36989)", "reagent": 1, "firefly reporter light, replicate 1": 6.58e5, "firefly reporter light, replicate 2": 4.80e5, "Renilla control light, replicate 1": 6.64e5, "Renilla control light, replicate 2": 6.65e5, "Outcome": "inactive"}
{"gene": "Ns2 (GeneID 36989)", "reagent": 2, "firefly reporter light, replicate 1": 5.18e5, "firefly reporter light, replicate 2": 4.98e5, "Renilla control light, replicate 1": 1.13e6, "Renilla control light, replicate 2": 9.90e5, "Outcome": "inactive"}
{"gene": "CG42634 + CG42635", "reagent": 1, "firefly reporter light, replicate 1": 1.98e5, "firefly reporter light, replicate 2": 1.72e5, "Renilla control light, replicate 1": 1.72e6, "Renilla control light, replicate 2": 2.14e6, "Outcome": "inactive"}
{"gene": "hui (GeneID 36648)", "reagent": 1, "firefly reporter light, replicate 1": 2.79e5, "firefly reporter light, replicate 2": 3.84e5, "Renilla control light, replicate 1": 1.49e6, "Renilla control light, replicate 2": 1.38e6, "Outcome": "inactive"}
{"gene": "hui (GeneID 36648)", "reagent": 2, "firefly reporter light, replicate 1": 1.35e6, "firefly reporter light, replicate 2": 1.20e6, "Renilla control light, replicate 1": 2.38e6, "Renilla control light, replicate 2": 1.37e6, "Outcome": "inactive"}
{"gene": "Zmynd8 (GeneID 43730)", "reagent": 1, "firefly reporter light, replicate 1": 1.22e5, "firefly reporter light, replicate 2": 88907, "Renilla control light, replicate 1": 6.74e5, "Renilla control light, replicate 2": 4.97e5, "Outcome": "inactive"}
{"gene": "Zmynd8 (GeneID 43730)", "reagent": 2, "firefly reporter light, replicate 1": 3.49e5, "firefly reporter light, replicate 2": 2.80e5, "Renilla control light, replicate 1": 5.81e5, "Renilla control light, replicate 2": 5.81e5, "Outcome": "inactive"}
{"gene": "CG7548 (GeneID 38843)", "reagent": 1, "firefly reporter light, replicate 1": 1.42e5, "firefly reporter light, replicate 2": 1.55e5, "Renilla control light, replicate 1": 1.96e6, "Renilla control light, replicate 2": 1.69e6, "Outcome": "inactive"}
{"gene": "CG7548 (GeneID 38843)", "reagent": 2, "firefly reporter light, replicate 1": 6.09e5, "firefly reporter light, replicate 2": 7.20e5, "Renilla control light, replicate 1": 1.76e6, "Renilla control light, replicate 2": 1.35e6, "Outcome": "inactive"}
{"gene": "Mrm2 (GeneID 42359)", "reagent": 1, "firefly reporter light, replicate 1": 2.90e5, "firefly reporter light, replicate 2": 3.56e5, "Renilla control light, replicate 1": 3.63e6, "Renilla control light, replicate 2": 3.90e6, "Outcome": "inactive"}
{"gene": "Mrm2 (GeneID 42359)", "reagent": 2, "firefly reporter light, replicate 1": 1.33e6, "firefly reporter light, replicate 2": 8.69e5, "Renilla control light, replicate 1": 3.63e6, "Renilla control light, replicate 2": 1.73e6, "Outcome": "inactive"}
{"gene": "mei-P26 (GeneID 45775)", "reagent": 1, "firefly reporter light, replicate 1": 4.94e5, "firefly reporter light, replicate 2": 5.36e5, "Renilla control light, replicate 1": 1.39e6, "Renilla control light, replicate 2": 1.51e6, "Outcome": "inactive"}

Laid out differently: entries from further up.
gene,reagent,"firefly reporter light, replicate 1","firefly reporter light, replicate 2","Renilla control light, replicate 1","Renilla control light, replicate 2",Outcome
Ns2 (GeneID 36989),1,6.58e5,4.80e5,6.64e5,6.65e5,inactive
Ns2 (GeneID 36989),2,5.18e5,4.98e5,1.13e6,9.90e5,inactive
